# Measurements published in patent US20190202914A1.
# B1: CL11 (antibody, human IgG1, V domains shown)
# VH: EVQLEETGGDLIQPGGSLRLSCTASGFNVSRIYMSWVRQAPGKGLEWVSVIYSGGSIYYADSVRGRFTISRDSSTNTVFLQMNSLRAEDSAVYYCARAVPSAPSSFDIWGQGTMVTVSS
# B2: CL30 (antibody, human IgG1, V domains shown)
# VH: B1 VH with F79Y, S101H, S105N, I108K, M114R
# B3: CL25 (antibody, human IgG1, V domains shown)
# VH: EVQLVETGGGLIQPGGSLRLSCAASGFTVSSNYMSWVRQAPGKGLEWVSVIYSGGSTYYADSVKGRFTISRDNSKNTLYLQMSNLTAEDTAVYYCARAVPHSPSAFDRWGQGTLVTVSS
# B4: CL20 (antibody, human IgG1, V domains shown)
# VH: EVQLVESGGGLVQPGGSLRLSCAASGFTFSNYWMHWVRQAPGKGLVWVSRINSDGSNTTYADSVKGRFTISRDNAKNTLYLQMNSLRAEDTAVYYCARWFGEHYYGMDVWGQGTTVTVSS
# B5: CL24 (antibody, human IgG1, V domains shown)
# VH: EVQLVETGGGLIQPGGSLRLSCAASGLNVSRHYLSWVRQAPGKGLEWVAVIYSGGGIEYVDSVKGRFTISRDNANNTLYLQMRSLRTEDSAVYYCARAIPRPHGSDIWGQGTMVTVSS
# B6: CL22 (antibody, human IgG1, V domains shown)
# VH: EVQLVETGGGLIQPGGSLRLSCAVSGFTVRNNYMSWARQVPGKGLEWVSVIYSGGSITYADSVKGRFIISRDNSNNTLYLQMNGLRAEDTAVYYCARAVPHAPSAFDIWGQGTMVTVSS
# B7: CL5 (antibody, human IgG1, V domains shown)
# VH: EVQLAETGGGLIQPGGSLRLSCAVSGFNVSKNYMSWVRQVPGKGLEWVAVVYSGGSKTYADSVKGRFILSRDNSDNTLYLQMNNLRAEDTAVYYCARAVPHSPSSFDIWGQGTMVTVSS
# B8: CL3 (antibody, human IgG1, V domains shown)
# VH: EVQLVEIGGGEIQPGGSLRLSCAASGFNVSKNYMSWVRQAPGKGLEWVSVIYSGGGTEYAASVKGRFNISRDSSKNMLYLQMNNLRAEDTAVYYCARAVPRPHGTDIWGQGTMVTVSS
# Target: cyno CTLA-4 expressed on 293 cells (293-cynoCTLA-4 cells) (cyno)
# Assay: flow cytometry on 293-cynoCTLA-4 cells
row,binding,Binder
1,binds,B1
2,binds,B2
3,binds,B3
4,binds,B4
5,binds,B5
6,binds,B6
7,binds,B7
8,binds,B8

# Target: cyno CTLA-4 expressed on 293 cells (293-cynoCTLA-4 cells) (cyno)
# Assay: flow cytometry (MFI) on 293 cells expressing cynomolgus CTLA-4, Alexa 488 anti-human (H+L) detection
row,binding,Binder
1,binds,B1
2,binds,B2
3,binds,B3
4,binds,B5
5,binds,B6
6,binds,B7
7,binds,B8

# Changes are numbered by the printed parent chain. These are yes or no findings as the source states them, for the method shown. Binding calls can cover weak binding; strength is not graded here.
